{
  "source": "the supplement of paper PMC4604168 (melanoma cell lines)",
  "assay_in_all_cases": "cleaved PARP positive nuclei fraction relative to DMSO control; melanoma cells; higher = more apoptosis",
  "conditions_in_all_cases": "library dose: low library concentration; 72 h",
  "key": {"COLO792": {"system": "COLO792"}, "COLO800": {"system": "COLO800"}, "COLO829": {"system": "COLO829"}, "G361": {"system": "G361"}, "IPC-298": {"system": "IPC-298"}, "IST-MEL1": {"system": "IST-MEL1"}, "LB2518-MEL": {"system": "LB2518-MEL"}, "LOXIMVI": {"system": "LOXIMVI"}, "MEL-HO": {"system": "MEL-HO"}, "MZ2-MEL": {"system": "MZ2-MEL"}, "MeWo": {"system": "MeWo"}, "RPMI7951": {"system": "RPMI7951"}, "RVH-421": {"system": "RVH-421"}, "SkMel28": {"system": "SkMel28"}, "SkMel2": {"system": "SkMel2"}, "SkMel30": {"system": "SkMel30"}, "SkMel5": {"system": "SkMel5"}, "UACC257": {"system": "UACC257"}, "UACC62": {"system": "UACC62"}},
  "note": "Some of the results follow. Many values rest on one well or one pass, so single values are uncertain.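 Cells were imaged in 1,536-well plates, and nuclei stained with an antibody against cleaved PARP were counted against all DNA-stained nuclei to give the apoptosis fraction. Screening doses were chosen to leave most cells alive, and resting and induced cleaved-PARP levels differ strongly between cell lines.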",
  "data": [
    {"smiles": "CCCCCCCCCCCCCCCCCCOP(=O)([O-])OC1CC[N+](C)(C)CC1", "note": "[Perifosine] + O=C(CCCCCCC(=O)Nc1ccccc1)NO [vorinostat] (first compound 0.4 µM, partner dose 0.08 µM)", "values": [
      {"measurement": "cleaved PARP positive nuclei fraction", "setting": "COLO792", "value": 96.3, "unit": "%"},
      {"measurement": "cleaved PARP positive nuclei fraction", "setting": "COLO800", "value": 84.3, "unit": "%"},
      {"measurement": "cleaved PARP positive nuclei fraction", "setting": "COLO829", "value": 150, "unit": "%"},
      {"measurement": "cleaved PARP positive nuclei fraction", "setting": "G361", "value": 95, "unit": "%"},
      {"measurement": "cleaved PARP positive nuclei fraction", "setting": "IPC-298", "value": 229, "unit": "%"},
      {"measurement": "cleaved PARP positive nuclei fraction", "setting": "IST-MEL1", "value": 97.2, "unit": "%"},
      {"measurement": "cleaved PARP positive nuclei fraction", "setting": "LB2518-MEL", "value": 50.3, "unit": "%"},
      {"measurement": "cleaved PARP positive nuclei fraction", "setting": "LOXIMVI", "value": 68, "unit": "%"},
      {"measurement": "cleaved PARP positive nuclei fraction", "setting": "MEL-HO", "value": 124, "unit": "%"},
      {"measurement": "cleaved PARP positive nuclei fraction", "setting": "MZ2-MEL", "value": 115, "unit": "%"},
      {"measurement": "cleaved PARP positive nuclei fraction", "setting": "MeWo", "value": 71.2, "unit": "%"},
      {"measurement": "cleaved PARP positive nuclei fraction", "setting": "RPMI7951", "value": 124, "unit": "%"},
      {"measurement": "cleaved PARP positive nuclei fraction", "setting": "RVH-421", "value": 91.9, "unit": "%"},
      {"measurement": "cleaved PARP positive nuclei fraction", "setting": "SkMel28", "value": 73.4, "unit": "%"},
      {"measurement": "cleaved PARP positive nuclei fraction", "setting": "SkMel2", "value": 121, "unit": "%"},
      {"measurement": "cleaved PARP positive nuclei fraction", "setting": "SkMel30", "value": 77.9, "unit": "%"},
      {"measurement": "cleaved PARP positive nuclei fraction", "setting": "SkMel5", "value": 73.3, "unit": "%"},
      {"measurement": "cleaved PARP positive nuclei fraction", "setting": "UACC257", "value": 148, "unit": "%"},
      {"measurement": "cleaved PARP positive nuclei fraction", "setting": "UACC62", "value": 215, "unit": "%"}
    ]},
    {"smiles": "Cc1cn(-c2cc(NC(=O)c3ccc(C)c(Nc4nccc(-c5cccnc5)n4)c3)cc(C(F)(F)F)c2)cn1", "note": "[nilotinib] + Cn1cncc1[C@@](N)(c1ccc(Cl)cc1)c1ccc2c(c1)c(-c1cccc(Cl)c1)cc(=O)n2C [tipifarnib] (first compound 0.2 µM, partner dose 0.01 µM)", "values": [
      {"measurement": "cleaved PARP positive nuclei fraction", "setting": "COLO792", "value": 265, "unit": "%"},
      {"measurement": "cleaved PARP positive nuclei fraction", "setting": "COLO800", "value": 57.2, "unit": "%"},
      {"measurement": "cleaved PARP positive nuclei fraction", "setting": "COLO829", "value": 189, "unit": "%"},
      {"measurement": "cleaved PARP positive nuclei fraction", "setting": "G361", "value": 116, "unit": "%"},
      {"measurement": "cleaved PARP positive nuclei fraction", "setting": "IPC-298", "value": 90.9, "unit": "%"},
      {"measurement": "cleaved PARP positive nuclei fraction", "setting": "IST-MEL1", "value": 192, "unit": "%"},
      {"measurement": "cleaved PARP positive nuclei fraction", "setting": "LB2518-MEL", "value": 93, "unit": "%"},
      {"measurement": "cleaved PARP positive nuclei fraction", "setting": "LOXIMVI", "value": 77.5, "unit": "%"},
      {"measurement": "cleaved PARP positive nuclei fraction", "setting": "MEL-HO", "value": 102, "unit": "%"},
      {"measurement": "cleaved PARP positive nuclei fraction", "setting": "MZ2-MEL", "value": 114, "unit": "%"},
      {"measurement": "cleaved PARP positive nuclei fraction", "setting": "MeWo", "value": 55, "unit": "%"},
      {"measurement": "cleaved PARP positive nuclei fraction", "setting": "RPMI7951", "value": 148, "unit": "%"},
      {"measurement": "cleaved PARP positive nuclei fraction", "setting": "RVH-421", "value": 72.9, "unit": "%"},
      {"measurement": "cleaved PARP positive nuclei fraction", "setting": "SkMel28", "value": 342, "unit": "%"},
      {"measurement": "cleaved PARP positive nuclei fraction", "setting": "SkMel2", "value": 149, "unit": "%"},
      {"measurement": "cleaved PARP positive nuclei fraction", "setting": "SkMel30", "value": 75.6, "unit": "%"},
      {"measurement": "cleaved PARP positive nuclei fraction", "setting": "SkMel5", "value": 96.5, "unit": "%"},
      {"measurement": "cleaved PARP positive nuclei fraction", "setting": "UACC257", "value": 225, "unit": "%"},
      {"measurement": "cleaved PARP positive nuclei fraction", "setting": "UACC62", "value": 244, "unit": "%"}
    ]},
    {"smiles": "O=c1[nH]nc(Sc2ncc([N+](=O)[O-])s2)n1-c1ccc2c(c1)OCCO2", "note": "+ O=C(CCCCCCC(=O)Nc1ccccc1)NO [vorinostat] (first compound 0.2 µM, partner dose 0.08 µM)", "values": [
      {"measurement": "cleaved PARP positive nuclei fraction", "setting": "COLO792", "value": 119, "unit": "%"},
      {"measurement": "cleaved PARP positive nuclei fraction", "setting": "COLO800", "value": 95, "unit": "%"},
      {"measurement": "cleaved PARP positive nuclei fraction", "setting": "COLO829", "value": 108, "unit": "%"},
      {"measurement": "cleaved PARP positive nuclei fraction", "setting": "G361", "value": 31.2, "unit": "%"},
      {"measurement": "cleaved PARP positive nuclei fraction", "setting": "IPC-298", "value": 83.7, "unit": "%"},
      {"measurement": "cleaved PARP positive nuclei fraction", "setting": "IST-MEL1", "value": 91.1, "unit": "%"},
      {"measurement": "cleaved PARP positive nuclei fraction", "setting": "LB2518-MEL", "value": 89.9, "unit": "%"},
      {"measurement": "cleaved PARP positive nuclei fraction", "setting": "LOXIMVI", "value": 86.3, "unit": "%"},
      {"measurement": "cleaved PARP positive nuclei fraction", "setting": "MEL-HO", "value": 170, "unit": "%"},
      {"measurement": "cleaved PARP positive nuclei fraction", "setting": "MZ2-MEL", "value": 142, "unit": "%"},
      {"measurement": "cleaved PARP positive nuclei fraction", "setting": "MeWo", "value": 67.1, "unit": "%"},
      {"measurement": "cleaved PARP positive nuclei fraction", "setting": "RPMI7951", "value": 140, "unit": "%"},
      {"measurement": "cleaved PARP positive nuclei fraction", "setting": "RVH-421", "value": 52, "unit": "%"},
      {"measurement": "cleaved PARP positive nuclei fraction", "setting": "SkMel28", "value": 55, "unit": "%"},
      {"measurement": "cleaved PARP positive nuclei fraction", "setting": "SkMel2", "value": 53.1, "unit": "%"},
      {"measurement": "cleaved PARP positive nuclei fraction", "setting": "SkMel30", "value": 63.1, "unit": "%"},
      {"measurement": "cleaved PARP positive nuclei fraction", "setting": "SkMel5", "value": 201, "unit": "%"},
      {"measurement": "cleaved PARP positive nuclei fraction", "setting": "UACC257", "value": 45.9, "unit": "%"},
      {"measurement": "cleaved PARP positive nuclei fraction", "setting": "UACC62", "value": 130, "unit": "%"}
    ]},
    {"smiles": "O=C(Nc1cc(C(F)(F)F)cc(C(F)(F)F)c1)c1cc(Cl)ccc1O", "note": "+ Cc1cc(N2CCOCC2)cc2[nH]c(-c3c(NC[C@@H](O)c4cccc(Cl)c4)cc[nH]c3=O)nc12 [BMS536924] (first compound 0.016 µM, partner dose 0.2 µM)", "values": [
      {"measurement": "cleaved PARP positive nuclei fraction", "setting": "COLO792", "value": 153, "unit": "%"},
      {"measurement": "cleaved PARP positive nuclei fraction", "setting": "COLO800", "value": 116, "unit": "%"},
      {"measurement": "cleaved PARP positive nuclei fraction", "setting": "COLO829", "value": 99.9, "unit": "%"},
      {"measurement": "cleaved PARP positive nuclei fraction", "setting": "G361", "value": 113, "unit": "%"},
      {"measurement": "cleaved PARP positive nuclei fraction", "setting": "IPC-298", "value": 98.1, "unit": "%"},
      {"measurement": "cleaved PARP positive nuclei fraction", "setting": "IST-MEL1", "value": 102, "unit": "%"},
      {"measurement": "cleaved PARP positive nuclei fraction", "setting": "LB2518-MEL", "value": 109, "unit": "%"},
      {"measurement": "cleaved PARP positive nuclei fraction", "setting": "LOXIMVI", "value": 206, "unit": "%"},
      {"measurement": "cleaved PARP positive nuclei fraction", "setting": "MEL-HO", "value": 62.9, "unit": "%"},
      {"measurement": "cleaved PARP positive nuclei fraction", "setting": "MZ2-MEL", "value": 100, "unit": "%"},
      {"measurement": "cleaved PARP positive nuclei fraction", "setting": "MeWo", "value": 38.6, "unit": "%"},
      {"measurement": "cleaved PARP positive nuclei fraction", "setting": "RPMI7951", "value": 151, "unit": "%"},
      {"measurement": "cleaved PARP positive nuclei fraction", "setting": "RVH-421", "value": 39, "unit": "%"},
      {"measurement": "cleaved PARP positive nuclei fraction", "setting": "SkMel28", "value": 36.8, "unit": "%"},
      {"measurement": "cleaved PARP positive nuclei fraction", "setting": "SkMel2", "value": 74.4, "unit": "%"},
      {"measurement": "cleaved PARP positive nuclei fraction", "setting": "SkMel30", "value": 143, "unit": "%"},
      {"measurement": "cleaved PARP positive nuclei fraction", "setting": "SkMel5", "value": 79.9, "unit": "%"},
      {"measurement": "cleaved PARP positive nuclei fraction", "setting": "UACC257", "value": 154, "unit": "%"},
      {"measurement": "cleaved PARP positive nuclei fraction", "setting": "UACC62", "value": 45.1, "unit": "%"}
    ]}
  ]
}
